According to the supplement of paper PMC10849652:
The other results are listed elsewhere or left out.

Protein sequences, listed by entry. Tags and fused reporters are not part of them. Lines headed by an entry give the natural chain unless they say otherwise; changes in a name come on top.
UniProt Q86UV5: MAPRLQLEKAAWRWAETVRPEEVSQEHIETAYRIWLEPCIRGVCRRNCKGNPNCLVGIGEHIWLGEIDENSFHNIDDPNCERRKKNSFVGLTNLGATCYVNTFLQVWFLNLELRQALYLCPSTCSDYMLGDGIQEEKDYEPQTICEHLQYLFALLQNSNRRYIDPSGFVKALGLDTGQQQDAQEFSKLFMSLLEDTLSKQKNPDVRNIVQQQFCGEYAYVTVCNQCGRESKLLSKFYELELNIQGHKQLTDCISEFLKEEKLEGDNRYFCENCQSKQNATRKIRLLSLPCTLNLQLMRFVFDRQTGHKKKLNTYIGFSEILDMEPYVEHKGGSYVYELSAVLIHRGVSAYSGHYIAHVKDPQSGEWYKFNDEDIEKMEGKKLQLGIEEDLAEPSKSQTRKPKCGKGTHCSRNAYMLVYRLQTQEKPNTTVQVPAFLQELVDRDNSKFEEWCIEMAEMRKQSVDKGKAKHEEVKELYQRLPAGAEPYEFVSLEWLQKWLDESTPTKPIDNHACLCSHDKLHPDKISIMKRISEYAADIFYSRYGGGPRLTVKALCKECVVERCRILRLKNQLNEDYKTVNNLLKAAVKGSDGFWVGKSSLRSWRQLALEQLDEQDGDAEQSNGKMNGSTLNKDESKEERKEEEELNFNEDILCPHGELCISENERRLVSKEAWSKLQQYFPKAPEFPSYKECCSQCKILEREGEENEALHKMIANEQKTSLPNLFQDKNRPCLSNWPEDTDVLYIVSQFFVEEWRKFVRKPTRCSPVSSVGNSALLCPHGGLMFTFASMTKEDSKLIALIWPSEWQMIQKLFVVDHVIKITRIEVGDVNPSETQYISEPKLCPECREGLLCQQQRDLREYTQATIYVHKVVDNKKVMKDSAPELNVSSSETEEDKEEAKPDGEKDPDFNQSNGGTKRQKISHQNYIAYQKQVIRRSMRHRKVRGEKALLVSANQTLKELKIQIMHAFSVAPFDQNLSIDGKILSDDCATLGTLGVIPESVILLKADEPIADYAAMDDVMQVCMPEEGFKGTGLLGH
UniProt A6NIH7: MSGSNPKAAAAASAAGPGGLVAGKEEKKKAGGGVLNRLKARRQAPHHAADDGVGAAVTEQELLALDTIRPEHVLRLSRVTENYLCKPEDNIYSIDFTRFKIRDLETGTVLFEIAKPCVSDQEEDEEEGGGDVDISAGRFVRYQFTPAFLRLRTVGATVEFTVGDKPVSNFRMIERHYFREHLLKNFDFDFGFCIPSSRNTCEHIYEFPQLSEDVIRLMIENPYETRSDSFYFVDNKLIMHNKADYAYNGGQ
UniProt Q6BDS2: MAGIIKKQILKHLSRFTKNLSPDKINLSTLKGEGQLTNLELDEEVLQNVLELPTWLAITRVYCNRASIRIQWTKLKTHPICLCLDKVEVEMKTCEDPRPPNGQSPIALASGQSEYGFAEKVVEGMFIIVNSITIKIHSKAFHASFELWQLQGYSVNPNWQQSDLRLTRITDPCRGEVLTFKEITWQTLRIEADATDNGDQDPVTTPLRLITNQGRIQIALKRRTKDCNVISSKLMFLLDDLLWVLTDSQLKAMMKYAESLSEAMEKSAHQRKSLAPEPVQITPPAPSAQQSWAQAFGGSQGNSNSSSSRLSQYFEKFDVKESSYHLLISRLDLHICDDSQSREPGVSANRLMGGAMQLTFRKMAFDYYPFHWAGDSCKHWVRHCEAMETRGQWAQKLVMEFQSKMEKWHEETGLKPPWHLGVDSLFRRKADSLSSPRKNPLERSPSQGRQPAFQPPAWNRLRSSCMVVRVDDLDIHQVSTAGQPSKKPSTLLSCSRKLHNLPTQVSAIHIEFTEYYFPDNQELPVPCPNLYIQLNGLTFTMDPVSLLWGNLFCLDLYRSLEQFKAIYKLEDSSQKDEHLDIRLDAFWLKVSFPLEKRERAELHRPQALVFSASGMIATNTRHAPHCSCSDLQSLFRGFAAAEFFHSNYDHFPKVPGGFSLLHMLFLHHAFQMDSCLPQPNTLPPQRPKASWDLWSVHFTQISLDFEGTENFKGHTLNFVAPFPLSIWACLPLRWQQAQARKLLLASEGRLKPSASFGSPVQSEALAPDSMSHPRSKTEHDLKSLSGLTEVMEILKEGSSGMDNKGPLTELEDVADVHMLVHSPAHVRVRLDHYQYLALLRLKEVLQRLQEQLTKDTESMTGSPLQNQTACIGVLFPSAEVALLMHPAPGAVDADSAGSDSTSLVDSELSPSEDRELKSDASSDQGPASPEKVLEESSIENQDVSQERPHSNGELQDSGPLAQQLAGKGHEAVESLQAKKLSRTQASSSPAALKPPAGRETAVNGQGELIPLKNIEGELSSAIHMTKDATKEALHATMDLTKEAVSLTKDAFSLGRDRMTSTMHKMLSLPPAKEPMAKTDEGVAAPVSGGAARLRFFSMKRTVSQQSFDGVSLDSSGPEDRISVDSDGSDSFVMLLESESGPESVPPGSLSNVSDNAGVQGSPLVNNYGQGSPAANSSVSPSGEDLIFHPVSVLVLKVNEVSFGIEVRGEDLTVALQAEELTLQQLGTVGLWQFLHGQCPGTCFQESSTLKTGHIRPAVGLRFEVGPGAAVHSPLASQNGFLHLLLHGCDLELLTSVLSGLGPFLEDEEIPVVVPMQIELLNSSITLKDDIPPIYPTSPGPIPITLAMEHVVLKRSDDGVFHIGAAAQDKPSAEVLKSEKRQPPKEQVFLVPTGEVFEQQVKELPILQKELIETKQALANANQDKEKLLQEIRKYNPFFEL
UniProt Q8NBZ7: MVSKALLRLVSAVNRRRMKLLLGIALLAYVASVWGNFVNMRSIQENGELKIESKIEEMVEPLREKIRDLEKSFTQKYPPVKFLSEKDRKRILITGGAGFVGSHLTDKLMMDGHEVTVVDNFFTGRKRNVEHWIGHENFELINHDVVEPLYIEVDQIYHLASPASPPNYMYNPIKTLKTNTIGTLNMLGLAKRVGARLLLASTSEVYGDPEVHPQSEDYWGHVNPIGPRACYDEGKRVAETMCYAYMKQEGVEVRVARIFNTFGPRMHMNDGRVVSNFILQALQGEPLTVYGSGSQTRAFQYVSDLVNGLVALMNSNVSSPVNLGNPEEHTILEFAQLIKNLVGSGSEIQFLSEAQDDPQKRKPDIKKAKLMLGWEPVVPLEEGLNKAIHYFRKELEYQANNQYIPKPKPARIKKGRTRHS
UniProt Q8WVY7: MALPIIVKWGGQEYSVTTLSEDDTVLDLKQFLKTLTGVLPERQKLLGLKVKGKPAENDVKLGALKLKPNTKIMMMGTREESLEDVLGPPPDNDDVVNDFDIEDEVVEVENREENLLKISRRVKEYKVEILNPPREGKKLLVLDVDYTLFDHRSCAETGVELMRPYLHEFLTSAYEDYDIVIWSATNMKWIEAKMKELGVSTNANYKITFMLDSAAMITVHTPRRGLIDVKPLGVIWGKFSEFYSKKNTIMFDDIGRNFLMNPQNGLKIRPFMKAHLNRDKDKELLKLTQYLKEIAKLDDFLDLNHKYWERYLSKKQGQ
UniProt Q9BZI7: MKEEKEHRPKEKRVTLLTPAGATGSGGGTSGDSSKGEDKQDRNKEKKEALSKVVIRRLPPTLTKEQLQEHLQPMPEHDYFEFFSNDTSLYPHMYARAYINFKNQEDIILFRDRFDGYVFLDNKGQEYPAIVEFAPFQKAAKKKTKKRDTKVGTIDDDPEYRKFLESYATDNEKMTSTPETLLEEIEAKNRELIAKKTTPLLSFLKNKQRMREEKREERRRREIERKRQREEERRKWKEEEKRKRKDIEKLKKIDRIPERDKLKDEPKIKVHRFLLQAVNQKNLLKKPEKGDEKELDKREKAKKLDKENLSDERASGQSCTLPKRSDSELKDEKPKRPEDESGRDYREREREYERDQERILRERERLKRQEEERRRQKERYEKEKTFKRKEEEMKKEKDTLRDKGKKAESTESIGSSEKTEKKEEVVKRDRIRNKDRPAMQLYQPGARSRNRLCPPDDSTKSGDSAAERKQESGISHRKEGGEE
UniProt O94874: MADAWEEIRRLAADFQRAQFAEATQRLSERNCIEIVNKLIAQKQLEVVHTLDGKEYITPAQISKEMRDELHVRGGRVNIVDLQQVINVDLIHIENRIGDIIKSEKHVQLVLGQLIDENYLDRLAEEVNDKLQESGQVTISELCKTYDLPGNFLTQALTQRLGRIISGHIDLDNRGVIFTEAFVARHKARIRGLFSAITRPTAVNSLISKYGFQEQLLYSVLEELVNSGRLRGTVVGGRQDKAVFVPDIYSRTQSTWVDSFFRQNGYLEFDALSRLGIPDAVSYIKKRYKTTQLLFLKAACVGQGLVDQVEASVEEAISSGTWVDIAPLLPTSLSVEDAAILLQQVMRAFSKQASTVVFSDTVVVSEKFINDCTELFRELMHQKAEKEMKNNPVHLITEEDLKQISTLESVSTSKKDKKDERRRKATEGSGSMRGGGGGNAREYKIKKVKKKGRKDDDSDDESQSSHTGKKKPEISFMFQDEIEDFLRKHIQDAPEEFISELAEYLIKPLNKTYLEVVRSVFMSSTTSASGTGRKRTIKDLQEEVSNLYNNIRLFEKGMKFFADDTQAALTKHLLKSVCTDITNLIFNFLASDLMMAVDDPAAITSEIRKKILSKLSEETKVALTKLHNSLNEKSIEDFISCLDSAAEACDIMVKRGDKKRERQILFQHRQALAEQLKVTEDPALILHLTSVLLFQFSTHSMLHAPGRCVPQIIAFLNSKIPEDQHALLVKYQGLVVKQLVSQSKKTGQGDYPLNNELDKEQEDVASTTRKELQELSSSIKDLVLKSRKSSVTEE
UniProt Q16739: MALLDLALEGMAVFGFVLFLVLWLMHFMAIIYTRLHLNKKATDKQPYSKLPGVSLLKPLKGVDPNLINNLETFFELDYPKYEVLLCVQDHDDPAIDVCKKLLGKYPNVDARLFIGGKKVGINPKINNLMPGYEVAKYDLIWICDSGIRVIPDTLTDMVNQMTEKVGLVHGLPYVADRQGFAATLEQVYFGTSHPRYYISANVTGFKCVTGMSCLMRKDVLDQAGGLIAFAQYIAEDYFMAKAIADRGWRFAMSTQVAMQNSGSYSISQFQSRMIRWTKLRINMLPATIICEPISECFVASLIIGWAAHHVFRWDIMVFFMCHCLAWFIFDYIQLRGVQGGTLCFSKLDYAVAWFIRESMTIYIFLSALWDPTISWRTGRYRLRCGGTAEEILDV
UniProt Q9NQZ2: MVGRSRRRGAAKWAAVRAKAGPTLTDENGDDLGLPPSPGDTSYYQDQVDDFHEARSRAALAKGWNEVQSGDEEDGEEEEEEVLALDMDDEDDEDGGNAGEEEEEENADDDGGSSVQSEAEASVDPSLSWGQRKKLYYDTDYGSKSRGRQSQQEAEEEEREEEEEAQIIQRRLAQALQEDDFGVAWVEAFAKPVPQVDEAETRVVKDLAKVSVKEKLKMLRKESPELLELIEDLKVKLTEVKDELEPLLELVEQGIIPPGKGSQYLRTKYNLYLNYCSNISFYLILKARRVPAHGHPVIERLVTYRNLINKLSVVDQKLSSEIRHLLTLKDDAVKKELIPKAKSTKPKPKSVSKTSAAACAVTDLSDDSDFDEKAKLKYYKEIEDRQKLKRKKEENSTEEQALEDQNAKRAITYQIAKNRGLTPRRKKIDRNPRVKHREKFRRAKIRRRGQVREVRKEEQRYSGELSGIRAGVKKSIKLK

Key:
Assay in all cases: log2 fold change, soluble protein after heating vs DMSO (PISA); higher = thermal stabilisation; K562 cells, 10 uM, 30 min; active = over 0.2 and 3.5 SD of the protein, either way, in both replicates (recomputed)
[1] = compound: COC1=CC=C(C=C1)CN2C=CC3=C2C=C(C=C3)C(=O)NO
How it was run: (§1)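 Soluble protein was quantified by TMTpro 16plex LC-MS/MS after channel sums were equalised. It was obtained as the supernatant after 21,000xg for 90 min from pooled aliquots of K562 cells (2×10^6 cells/mL, 10 μM compound, 30 min) heated for 3 min across 48°C-58°C and extracted in PBS with 0.5% NP-40 at 4°C. Thermal stability values are relative to control samples and come from duplicates. They are given as log2 fold changes.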

[2] = compound: CON(C)C(=O)N1N=C(c2cc(F)ccc2F)S[C@@]1(CCCN)c1ccccc1 [filanesib]
How it was run: as §1

[3] = compound: CO[C@H]1C[C@@H]2CC[C@@H](C)[C@@](O)(O2)C(=O)C(=O)N2CCCC[C@H]2C(=O)O[C@H]([C@H](C)C[C@@H]2CC[C@H](n3cnnn3)[C@H](OC)C2)CC(=O)[C@H](C)/C=C(\C)[C@@H](O)[C@@H](OC)C(=O)[C@H](C)C[C@H](C)/C=C/C=C/C=C/1C [zotarolimus]
How it was run: as §1

[4] = compound: COc1cc(C(=O)O)ccc1NC(=O)[C@@H]1N[C@@H](CC(C)(C)C)[C@](C#N)(c2ccc(Cl)cc2F)[C@H]1c1cccc(Cl)c1F [idasanutlin]
How it was run: as §1

[5] = compound: COc1cc(Nc2ncc3c(n2)-c2ccc(Cl)cc2C(c2c(F)cccc2OC)=NC3)ccc1C(=O)O [alisertib]
How it was run: as §1

[6] = compound: COc1cc2nc(-c3cc(F)ccc3O)nc(N[C@@H]3CNC[C@H]3C(C)(C)O)c2cc1OC
How it was run: as §1

[7] = compound: COc1cc2ncnc(Nc3ccc(F)c(Cl)c3)c2cc1OCCCN1CCOCC1 [gefitinib]
How it was run: as §1

[8] = compound: COc1cccc2cc(-c3nc([C@H]4CC[C@H](C(=O)O)CC4)n4ncnc(N)c34)[nH]c12
How it was run: as §1

[9] = compound: CS(=O)(=O)CCNCc1ccc(-c2ccc3ncnc(Nc4ccc(OCc5cccc(F)c5)c(Cl)c4)c3c2)o1 [lapatinib]
How it was run: as §1

[10] = compound: CS(=O)(=O)N1CCN(Cc2cc3nc(-c4cccc5[nH]ncc45)nc(N4CCOCC4)c3s2)CC1 [pictilisib]
How it was run: as §1

[11] = compound: CS(=O)(=O)c1ccc(-c2cnc(N)c(C(=O)Nc3ccccc3)n2)cc1
How it was run: as §1

[12] = compound: C[C@@H](Oc1cc(-c2cnn(C3CCNCC3)c2)cnc1N)c1c(Cl)ccc(F)c1Cl [crizotinib]
How it was run: as §1

[13] = compound: C[C@@H]1COCCN1C2=NC(=NC(=C2)C3(CC3)S(=O)(=O)C)C4=C5C=CNC5=CC=C4
How it was run: as §1

[14] = compound: C[C@H](C1=CC=C(C=C1)C(=O)NC2=C3C=CNC3=NC=C2)N
How it was run: as §1

[15] = compound: Cc1cc(Nc2cc(CN3CCOCC3)c3nc(C)c(Cc4ccc(Cl)cc4F)n3n2)n[nH]1 [gandotinib]
How it was run: as §1

[16] = compound: Cc1cc(SCc2sc(-c3ccc(C(F)(F)F)cc3)nc2C)ccc1OCC(=O)O
How it was run: as §1

[17] = compound: Cc1ccc(-n2nc(C(C)(C)C)cc2NC(=O)Nc2ccc(OCCN3CCOCC3)c3ccccc23)cc1 [doramapimod]
How it was run: as §1

[18] = compound: Cc1ccc(C(=O)N(CCCN)[C@@H](c2nc3cc(Cl)ccc3c(=O)n2Cc2ccccc2)C(C)C)cc1 [ispinesib]
How it was run: as §1

[19] = compound: C[C@H](Nc1ncnc2nc[nH]c12)c1cc2cccc(Cl)c2c(=O)n1-c1ccccc1 [duvelisib]
How it was run: as §1

[20] = compound: Cc1cc(Nc2cc(N3CCN(C)CC3)nc(Sc3ccc(NC(=O)C4CC4)cc3)n2)n[nH]1 [tozasertib]
How it was run: as §1

| Target | log2 fold change [1] | log2 fold change [2] | log2 fold change [3] | log2 fold change [4] | log2 fold change [5] | log2 fold change [6] | log2 fold change [7] | log2 fold change [8] | log2 fold change [9] | log2 fold change [10] | log2 fold change [11] | log2 fold change [12] | log2 fold change [13] | log2 fold change [14] | log2 fold change [15] | log2 fold change [16] | log2 fold change [17] | log2 fold change [18] | log2 fold change [19] | log2 fold change [20] |
| --- | --- | --- | --- | --- | --- | --- | --- | --- | --- | --- | --- | --- | --- | --- | --- | --- | --- | --- | --- | --- |
| USP48 isoform 8 (UniProt Q86UV5) | inactive: 0.155 | inactive: -0.075 | inactive: 0.089 | inactive: -0.03 | inactive: 0.12 | inactive: -0.267 | inactive: 0.093 | inactive: -0.018 | inactive: 0.002 | inactive: 0.016 | inactive: 0.03 | inactive: -0.036 | inactive: 0.066 | inactive: -0.133 | inactive: -0.197 | inactive: 0.212 | inactive: -0.1 | inactive: -0.07 | – | – |
| UNC119B (UniProt A6NIH7) | inactive: -0.232 | inactive: 0.059 | inactive: 0.074 | inactive: -0.034 | inactive: -0.185 | inactive: 0.069 | inactive: 0.116 | inactive: -0.002 | inactive: 0.06 | inactive: 0.092 | inactive: 0.026 | inactive: -0.08 | – | inactive: 0.039 | inactive: 0.034 | inactive: -0.064 | inactive: 0.263 | active: 0.527 | – | – |
| UHRF1BP1 (UniProt Q6BDS2) | inactive: -0.025 | inactive: 0.079 | inactive: 0.161 | inactive: -0.029 | inactive: -0.033 | inactive: 0.104 | inactive: 0.045 | inactive: 0.037 | inactive: 0.038 | inactive: 0.032 | inactive: 0.003 | inactive: 0.086 | inactive: 0.001 | inactive: -0.009 | inactive: -0.004 | inactive: -0.014 | inactive: 0.014 | inactive: 0.12 | – | – |
| UXS1 isoform 2 (UniProt Q8NBZ7) | inactive: -0.084 | inactive: -0.004 | inactive: -0.013 | inactive: -0.033 | inactive: -0.031 | inactive: -0.053 | inactive: 0.006 | inactive: 0.134 | inactive: 0.121 | – | inactive: 0.043 | inactive: 0.169 | inactive: -0.004 | inactive: -0.082 | – | inactive: -0.065 | inactive: 0.04 | inactive: -0.024 | inactive: 0.01 | inactive: 0.017 |
| UBLCP1 (UniProt Q8WVY7) | inactive: -0.046 | inactive: -0.001 | inactive: -0.008 | inactive: -0.013 | inactive: 0.028 | inactive: 0.181 | inactive: 0.044 | inactive: -0.034 | inactive: 0.021 | inactive: 0.028 | inactive: 0.063 | inactive: 0.068 | inactive: -0.007 | inactive: -0.034 | inactive: -0.06 | inactive: 0.062 | inactive: -0.061 | inactive: 0.126 | – | – |
| UPF3B (UniProt Q9BZI7) | inactive: -0.044 | inactive: 0.26 | inactive: -0.015 | inactive: 0.209 | inactive: -0.048 | inactive: 0.187 | inactive: 0.061 | inactive: -0.114 | inactive: 0.234 | inactive: -0.058 | inactive: 0 | inactive: 0.091 | inactive: -0.63 | inactive: 0.542 | inactive: 0.452 | inactive: 0.064 | inactive: 0.295 | inactive: -0.222 | – | – |
| UFL1 (UniProt O94874) | inactive: 0.029 | inactive: -0.022 | inactive: 0.025 | inactive: -0.108 | inactive: -0.074 | inactive: 0.212 | inactive: 0.003 | inactive: -0.071 | inactive: -0.017 | inactive: 0.016 | inactive: 0.05 | inactive: -0.053 | inactive: -0.043 | inactive: 0.067 | inactive: -0.069 | inactive: 0.106 | inactive: -0.02 | inactive: -0.025 | – | – |
| UGCG (UniProt Q16739) | inactive: 0.009 | inactive: -0.005 | inactive: -0.094 | inactive: 0.028 | inactive: 0.077 | inactive: -0.082 | – | inactive: 0.013 | inactive: -0.036 | – | inactive: 0.152 | inactive: 0.126 | inactive: -0.055 | inactive: -0.051 | – | inactive: 0.098 | inactive: -0.015 | inactive: 0.267 | inactive: -0.226 | inactive: 0.099 |
| UTP3 (UniProt Q9NQZ2) | inactive: -0.058 | inactive: 0.368 | inactive: 0.125 | inactive: 0.26 | inactive: -0.09 | inactive: -0.074 | – | inactive: -0.067 | inactive: 0.204 | inactive: -0.06 | inactive: 0.015 | inactive: 0.061 | inactive: -0.494 | inactive: 0.363 | inactive: 0.17 | inactive: -0.04 | inactive: 0.099 | inactive: -0.144 | – | – |
